Experimental findings from publication PMC10533337 are described below.

In this data set the target is T1, His-MYB156 (UniProt A0A9E9JN96).
T1 sequence (looked up, limits assumed): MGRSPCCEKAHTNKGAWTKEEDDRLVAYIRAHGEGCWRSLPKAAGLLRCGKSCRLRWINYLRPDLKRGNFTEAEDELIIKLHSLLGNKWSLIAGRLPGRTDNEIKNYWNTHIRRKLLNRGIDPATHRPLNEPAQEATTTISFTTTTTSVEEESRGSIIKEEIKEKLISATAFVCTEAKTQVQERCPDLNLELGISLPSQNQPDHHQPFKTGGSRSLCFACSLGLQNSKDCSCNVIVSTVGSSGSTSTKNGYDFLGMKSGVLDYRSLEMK
The data set can be described thus: EMSA. The following applies: poly(dI-dC) 25 ng/uL; 20 uL: 1x binding buffer (LightShift kit, Thermo), 0.05% NP40, 1 mM DTT, 2.5 mM MgCl2, 25 ng/uL poly(dI-dC), 200 ng protein, 2.5 ng probe; room temperature, 30 min; recombinant protein; protein details: His (pET30a); label: 5' biotin. On the technique in general: Mobility shift assays separate free from complexed probe on a gel.

The exact form of at least one protein or probe is not confirmed. A negative result means that nothing was seen under these conditions. Tags and fusion partners may be left off the protein sequences shown.

On to “TTTTTTATTTAGATAGTAATAATTTTAGG (double strand) [P1mAC probe (AC-III mutated to AAATAAA)]”, for which the binding result is reported as “no binding”.
